Data: the supplement of paper PMC10849652
The other results are listed elsewhere or left out.

Sequences of proteins named here, by UniProt entry; tags and fusion partners are left off. A change or cut given only in a name is not applied to a line headed by its entry.
UniProt Q13505: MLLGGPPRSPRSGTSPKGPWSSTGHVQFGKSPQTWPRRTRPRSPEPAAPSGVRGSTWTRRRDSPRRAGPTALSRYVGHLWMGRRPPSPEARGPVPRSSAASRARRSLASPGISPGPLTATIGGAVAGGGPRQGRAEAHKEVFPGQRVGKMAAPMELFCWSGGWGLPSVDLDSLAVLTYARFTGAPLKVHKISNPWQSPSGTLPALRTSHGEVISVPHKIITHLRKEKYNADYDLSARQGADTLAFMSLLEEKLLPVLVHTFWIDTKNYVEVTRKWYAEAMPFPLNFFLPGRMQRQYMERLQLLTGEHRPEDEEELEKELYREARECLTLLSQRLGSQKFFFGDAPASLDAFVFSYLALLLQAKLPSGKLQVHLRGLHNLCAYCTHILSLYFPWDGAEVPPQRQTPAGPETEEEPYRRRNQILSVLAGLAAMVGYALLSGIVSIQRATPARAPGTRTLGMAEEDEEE
UniProt Q96S97: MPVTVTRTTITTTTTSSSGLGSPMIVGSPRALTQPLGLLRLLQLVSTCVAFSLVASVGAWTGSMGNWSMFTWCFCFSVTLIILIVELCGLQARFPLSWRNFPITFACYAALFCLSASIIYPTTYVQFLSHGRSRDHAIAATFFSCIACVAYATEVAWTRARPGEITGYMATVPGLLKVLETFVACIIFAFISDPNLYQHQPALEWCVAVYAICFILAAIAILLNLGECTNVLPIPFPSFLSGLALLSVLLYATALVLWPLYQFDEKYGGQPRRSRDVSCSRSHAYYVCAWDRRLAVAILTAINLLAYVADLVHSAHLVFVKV
UniProt O75431: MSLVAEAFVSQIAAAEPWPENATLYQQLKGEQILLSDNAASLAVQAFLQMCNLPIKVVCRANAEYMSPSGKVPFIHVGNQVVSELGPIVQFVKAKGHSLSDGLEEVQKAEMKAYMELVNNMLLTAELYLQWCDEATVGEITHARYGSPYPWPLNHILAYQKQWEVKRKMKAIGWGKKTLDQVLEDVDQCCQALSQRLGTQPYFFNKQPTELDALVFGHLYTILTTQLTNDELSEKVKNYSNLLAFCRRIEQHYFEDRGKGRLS
UniProt Q15390: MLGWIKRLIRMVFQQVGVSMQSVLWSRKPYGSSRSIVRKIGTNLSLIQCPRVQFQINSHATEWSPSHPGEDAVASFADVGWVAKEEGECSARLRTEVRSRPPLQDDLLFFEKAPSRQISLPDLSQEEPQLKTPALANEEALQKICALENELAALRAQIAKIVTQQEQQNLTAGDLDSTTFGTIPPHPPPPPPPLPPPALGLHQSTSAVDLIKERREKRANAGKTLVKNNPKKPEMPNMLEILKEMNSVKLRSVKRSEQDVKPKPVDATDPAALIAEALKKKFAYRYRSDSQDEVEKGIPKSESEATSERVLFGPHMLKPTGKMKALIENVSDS
UniProt Q9UDX5: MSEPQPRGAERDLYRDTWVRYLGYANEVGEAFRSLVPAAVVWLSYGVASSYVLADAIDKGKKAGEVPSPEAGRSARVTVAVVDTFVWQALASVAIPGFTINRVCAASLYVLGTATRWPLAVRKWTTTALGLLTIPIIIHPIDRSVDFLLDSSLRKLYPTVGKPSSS
UniProt O75570: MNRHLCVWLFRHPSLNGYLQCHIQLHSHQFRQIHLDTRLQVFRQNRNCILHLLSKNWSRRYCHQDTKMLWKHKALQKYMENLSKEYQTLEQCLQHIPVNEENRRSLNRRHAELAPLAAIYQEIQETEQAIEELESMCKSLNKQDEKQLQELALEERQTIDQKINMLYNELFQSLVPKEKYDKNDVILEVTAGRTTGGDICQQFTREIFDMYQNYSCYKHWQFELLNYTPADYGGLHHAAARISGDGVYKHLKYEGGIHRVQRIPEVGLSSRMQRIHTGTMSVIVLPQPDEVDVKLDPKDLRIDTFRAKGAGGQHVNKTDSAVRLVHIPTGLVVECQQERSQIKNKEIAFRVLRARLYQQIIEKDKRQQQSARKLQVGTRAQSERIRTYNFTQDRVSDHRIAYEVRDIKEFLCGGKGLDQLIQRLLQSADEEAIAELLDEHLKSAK
UniProt O43347: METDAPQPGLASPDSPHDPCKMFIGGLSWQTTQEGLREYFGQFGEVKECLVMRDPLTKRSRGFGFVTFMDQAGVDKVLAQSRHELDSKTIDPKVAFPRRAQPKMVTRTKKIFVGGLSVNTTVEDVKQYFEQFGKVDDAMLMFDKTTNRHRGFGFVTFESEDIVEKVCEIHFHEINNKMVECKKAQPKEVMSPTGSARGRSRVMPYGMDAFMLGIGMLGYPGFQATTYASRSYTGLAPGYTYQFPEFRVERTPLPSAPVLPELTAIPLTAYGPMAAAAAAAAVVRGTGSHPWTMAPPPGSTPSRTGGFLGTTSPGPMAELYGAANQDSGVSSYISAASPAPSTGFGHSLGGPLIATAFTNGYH
UniProt Q9Y2K3: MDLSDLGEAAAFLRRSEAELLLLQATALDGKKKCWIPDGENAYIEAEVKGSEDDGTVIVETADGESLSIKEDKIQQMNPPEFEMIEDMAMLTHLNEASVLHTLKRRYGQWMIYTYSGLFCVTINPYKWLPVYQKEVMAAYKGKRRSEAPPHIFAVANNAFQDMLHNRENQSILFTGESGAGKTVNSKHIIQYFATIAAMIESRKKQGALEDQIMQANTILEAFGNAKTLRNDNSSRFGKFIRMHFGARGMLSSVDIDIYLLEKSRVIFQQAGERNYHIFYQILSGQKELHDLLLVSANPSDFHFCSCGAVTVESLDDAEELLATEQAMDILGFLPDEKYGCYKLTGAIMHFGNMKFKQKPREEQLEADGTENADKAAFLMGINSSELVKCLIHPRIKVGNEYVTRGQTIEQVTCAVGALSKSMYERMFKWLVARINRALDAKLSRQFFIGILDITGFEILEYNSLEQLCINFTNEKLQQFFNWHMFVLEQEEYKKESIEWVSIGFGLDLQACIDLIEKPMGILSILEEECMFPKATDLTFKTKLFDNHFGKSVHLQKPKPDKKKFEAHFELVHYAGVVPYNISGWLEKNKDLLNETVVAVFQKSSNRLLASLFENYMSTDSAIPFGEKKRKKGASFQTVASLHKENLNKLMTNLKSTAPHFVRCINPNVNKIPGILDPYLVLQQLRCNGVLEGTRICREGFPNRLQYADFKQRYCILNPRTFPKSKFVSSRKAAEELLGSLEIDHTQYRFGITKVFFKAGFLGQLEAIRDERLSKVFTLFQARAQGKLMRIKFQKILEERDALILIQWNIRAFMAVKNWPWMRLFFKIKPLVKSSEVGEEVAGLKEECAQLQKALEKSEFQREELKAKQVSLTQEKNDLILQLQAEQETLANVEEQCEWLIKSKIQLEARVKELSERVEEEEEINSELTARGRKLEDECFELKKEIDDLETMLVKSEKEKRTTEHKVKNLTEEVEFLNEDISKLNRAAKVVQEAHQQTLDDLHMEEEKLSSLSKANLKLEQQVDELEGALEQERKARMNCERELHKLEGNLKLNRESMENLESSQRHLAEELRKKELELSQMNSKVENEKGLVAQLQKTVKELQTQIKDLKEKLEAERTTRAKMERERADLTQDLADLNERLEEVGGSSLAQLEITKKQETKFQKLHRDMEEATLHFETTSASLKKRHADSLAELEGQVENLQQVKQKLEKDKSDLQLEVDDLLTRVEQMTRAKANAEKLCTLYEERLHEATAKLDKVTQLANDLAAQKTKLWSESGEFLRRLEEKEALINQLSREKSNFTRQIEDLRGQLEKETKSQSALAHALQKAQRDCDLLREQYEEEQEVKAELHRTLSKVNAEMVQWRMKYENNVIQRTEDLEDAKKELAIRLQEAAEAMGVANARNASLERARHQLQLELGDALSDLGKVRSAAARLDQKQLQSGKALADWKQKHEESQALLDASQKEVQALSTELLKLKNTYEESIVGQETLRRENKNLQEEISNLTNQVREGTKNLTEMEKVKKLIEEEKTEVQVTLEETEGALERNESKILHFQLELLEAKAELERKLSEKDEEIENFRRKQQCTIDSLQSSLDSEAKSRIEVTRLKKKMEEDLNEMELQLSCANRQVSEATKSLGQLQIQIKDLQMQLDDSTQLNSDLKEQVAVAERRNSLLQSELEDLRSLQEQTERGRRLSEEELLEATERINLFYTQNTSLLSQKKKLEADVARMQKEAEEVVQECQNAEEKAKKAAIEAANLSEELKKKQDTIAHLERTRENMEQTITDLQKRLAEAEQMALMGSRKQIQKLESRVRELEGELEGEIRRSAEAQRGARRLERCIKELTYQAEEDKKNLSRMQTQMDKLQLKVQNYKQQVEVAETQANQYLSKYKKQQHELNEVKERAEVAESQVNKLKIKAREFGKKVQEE
UniProt P14649: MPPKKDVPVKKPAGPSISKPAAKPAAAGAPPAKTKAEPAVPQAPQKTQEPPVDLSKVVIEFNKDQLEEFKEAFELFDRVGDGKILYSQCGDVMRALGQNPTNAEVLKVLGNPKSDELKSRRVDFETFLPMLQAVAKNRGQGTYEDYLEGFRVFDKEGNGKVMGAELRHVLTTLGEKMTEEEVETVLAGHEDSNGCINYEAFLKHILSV
UniProt Q9NZJ7, whole entry, looked up: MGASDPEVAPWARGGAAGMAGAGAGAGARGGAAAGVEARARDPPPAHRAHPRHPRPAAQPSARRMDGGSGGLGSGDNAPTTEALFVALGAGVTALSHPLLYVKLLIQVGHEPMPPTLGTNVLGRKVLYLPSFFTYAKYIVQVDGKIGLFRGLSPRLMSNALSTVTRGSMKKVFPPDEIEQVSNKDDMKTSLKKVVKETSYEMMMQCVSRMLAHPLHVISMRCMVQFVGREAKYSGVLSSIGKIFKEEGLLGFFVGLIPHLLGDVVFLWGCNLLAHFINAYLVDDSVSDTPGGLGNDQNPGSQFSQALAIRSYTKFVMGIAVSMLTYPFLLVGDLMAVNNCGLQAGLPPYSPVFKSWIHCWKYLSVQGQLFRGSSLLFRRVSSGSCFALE
UniProt P00403, whole entry, looked up: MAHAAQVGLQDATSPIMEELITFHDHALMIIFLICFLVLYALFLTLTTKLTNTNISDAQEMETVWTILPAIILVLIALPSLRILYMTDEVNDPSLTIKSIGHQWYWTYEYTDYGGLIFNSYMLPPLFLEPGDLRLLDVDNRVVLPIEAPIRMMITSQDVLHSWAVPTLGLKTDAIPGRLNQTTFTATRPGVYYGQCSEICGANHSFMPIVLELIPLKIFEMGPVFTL
UniProt O00159, whole entry, looked up: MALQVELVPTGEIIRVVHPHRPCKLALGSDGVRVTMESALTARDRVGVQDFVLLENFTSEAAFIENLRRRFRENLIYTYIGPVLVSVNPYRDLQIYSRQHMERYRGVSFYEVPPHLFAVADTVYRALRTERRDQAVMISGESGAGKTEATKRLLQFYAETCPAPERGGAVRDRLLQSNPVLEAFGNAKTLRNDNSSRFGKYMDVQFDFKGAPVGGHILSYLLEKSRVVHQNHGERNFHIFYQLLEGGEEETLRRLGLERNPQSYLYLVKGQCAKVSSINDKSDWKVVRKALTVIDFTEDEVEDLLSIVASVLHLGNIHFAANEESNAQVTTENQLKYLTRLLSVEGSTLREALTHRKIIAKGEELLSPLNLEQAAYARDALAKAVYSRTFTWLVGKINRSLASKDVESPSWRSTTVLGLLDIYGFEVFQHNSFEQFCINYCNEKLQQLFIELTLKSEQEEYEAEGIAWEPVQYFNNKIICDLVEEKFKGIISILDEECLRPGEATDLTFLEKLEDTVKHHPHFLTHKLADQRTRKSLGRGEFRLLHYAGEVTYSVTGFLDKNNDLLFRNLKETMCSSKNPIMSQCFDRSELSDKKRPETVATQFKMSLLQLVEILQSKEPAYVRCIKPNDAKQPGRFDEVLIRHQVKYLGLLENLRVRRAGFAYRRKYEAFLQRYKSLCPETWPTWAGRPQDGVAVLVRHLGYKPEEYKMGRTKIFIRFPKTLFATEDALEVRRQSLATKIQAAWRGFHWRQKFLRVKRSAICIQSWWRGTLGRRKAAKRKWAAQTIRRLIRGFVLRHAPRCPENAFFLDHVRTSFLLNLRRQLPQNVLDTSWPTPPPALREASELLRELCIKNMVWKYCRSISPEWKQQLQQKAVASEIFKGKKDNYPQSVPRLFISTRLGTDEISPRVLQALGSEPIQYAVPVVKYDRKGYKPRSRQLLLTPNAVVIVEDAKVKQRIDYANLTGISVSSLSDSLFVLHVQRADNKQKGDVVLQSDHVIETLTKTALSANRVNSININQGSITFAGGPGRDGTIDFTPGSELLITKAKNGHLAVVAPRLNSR
UniProt P82909: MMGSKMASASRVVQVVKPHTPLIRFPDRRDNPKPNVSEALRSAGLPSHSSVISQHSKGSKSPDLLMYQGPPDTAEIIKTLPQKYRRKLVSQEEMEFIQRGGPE
UniProt P58546, whole entry, looked up: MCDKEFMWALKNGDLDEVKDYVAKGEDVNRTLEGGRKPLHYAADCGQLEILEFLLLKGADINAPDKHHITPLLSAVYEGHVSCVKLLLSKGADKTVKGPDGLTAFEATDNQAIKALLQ
UniProt P12829: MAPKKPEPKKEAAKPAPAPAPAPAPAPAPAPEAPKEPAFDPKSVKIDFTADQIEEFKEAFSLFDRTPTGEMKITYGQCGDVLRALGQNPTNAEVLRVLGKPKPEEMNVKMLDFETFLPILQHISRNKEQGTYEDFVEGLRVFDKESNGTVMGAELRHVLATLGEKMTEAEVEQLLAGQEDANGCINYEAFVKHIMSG

Tests used:
Experiment in all cases: log2 fold change, soluble protein after heating vs DMSO (PISA); higher = thermal stabilisation; K562 cells, 10 uM, 30 min; active = over 0.2 and 3.5 SD of the protein, either way, in both replicates (recomputed)
[1] = compound: CS(=O)(=O)c1ccc(-c2cnc(N)c(C(=O)Nc3ccccc3)n2)cc1
Procedure, shortened: (§1)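 Soluble protein was defined as the supernatant after 21,000xg for 90 min. It came from K562 cells at 2×10^6 cells/mL given 10 μM compound for 30 min, heated in aliquots for 3 min across 48°C-58°C, pooled, and extracted in PBS with 0.5% NP-40 at 4°C, and was quantified by TMTpro 16plex LC-MS/MS with equalised channel sums. Thermal stability against control samples, from duplicates, is reported as log2 fold change.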

[2] = compound: C[C@@H](Oc1cc(-c2cnn(C3CCNCC3)c2)cnc1N)c1c(Cl)ccc(F)c1Cl [crizotinib]
Procedure, shortened: as §1

[3] = compound: C[C@@H]1COCCN1C2=NC(=NC(=C2)C3(CC3)S(=O)(=O)C)C4=C5C=CNC5=CC=C4
Procedure, shortened: as §1

[4] = compound: C[C@H](C1=CC=C(C=C1)C(=O)NC2=C3C=CNC3=NC=C2)N
Procedure, shortened: as §1

[5] = compound: C[C@H](Nc1ncnc2nc[nH]c12)c1cc2cccc(Cl)c2c(=O)n1-c1ccccc1 [duvelisib]
Procedure, shortened: as §1

[6] = compound: Cc1cc(Nc2cc(CN3CCOCC3)c3nc(C)c(Cc4ccc(Cl)cc4F)n3n2)n[nH]1 [gandotinib]
Procedure, shortened: as §1

[7] = compound: Cc1cc(Nc2cc(N3CCN(C)CC3)nc(Sc3ccc(NC(=O)C4CC4)cc3)n2)n[nH]1 [tozasertib]
Procedure, shortened: as §1

[8] = compound: Cc1cc(SCc2sc(-c3ccc(C(F)(F)F)cc3)nc2C)ccc1OCC(=O)O
Procedure, shortened: as §1

[9] = compound: Cc1ccc(-n2nc(C(C)(C)C)cc2NC(=O)Nc2ccc(OCCN3CCOCC3)c3ccccc23)cc1 [doramapimod]
Procedure, shortened: as §1

[10] = compound: Cc1ccc(C(=O)N(CCCN)[C@@H](c2nc3cc(Cl)ccc3c(=O)n2Cc2ccccc2)C(C)C)cc1 [ispinesib]
Procedure, shortened: as §1

Measured: log2 fold change

MTX1 (UniProt Q13505)
inactive: [1] 0.069 | [2] -0.011 | [3] 0.112 | [4] -0.037 | [5] 0.007 | [6] -0.01 | [7] -0.031 | [8] 0.021 | [9] 0.017 | [10] 0.081

MRPL58 (UniProt Q14197)
inactive: [1] 0.016 | [2] -0.023 | [3] -0.065 | [4] 0.154 | [5] -0.063 | [6] 0.063 | [7] 0.067 | [8] 0.087 | [9] 0.131 | [10] -0.127

MT-ND5 (UniProt P03915)
inactive: [1] 0.002 | [2] -0.061 | [3] 0.039 | [4] 0.009 | [5] 0.022 | [6] -0.182 | [7] -0.013 | [8] -0.09 | [9] 0.043 | [10] -0.026

MYADM (UniProt Q96S97)
inactive: [1] -0.068 | [2] -0.098 | [3] -0.007 | [4] 0.05 | [5] 0.065 | [6] 0.133 | [7] 0.051 | [8] 0.115 | [9] 0.026 | [10] -0.22

MTA2 (UniProt O94776)
inactive: [1] -0.027 | [2] -0.052 | [3] 0.098 | [4] 0.022 | [5] 0 | [6] 0.03 | [7] 0.108 | [8] 0.097 | [9] -0.015 | [10] -0.057

MTX2 (UniProt O75431)
inactive: [1] 0.08 | [2] -0.025 | [3] 0.02 | [4] -0.011 | [5] 0.075 | [6] 0 | [7] 0 | [8] 0.085 | [9] 0.022 | [10] 0.045

MTFR1 (UniProt Q15390)
inactive: [1] -0.014 | [2] -0.139 | [3] -0.008 | [4] -0.014 | [5] 0.013 | [6] -0.037 | [7] -0.026 | [8] -0.039 | [9] -0.015 | [10] -0.074

MTFP1 (UniProt Q9UDX5)
inactive: [1] 0.072 | [2] 0.077 | [3] 0.037 | [4] -0.08 | [5] 0.076 | [6] -0.01 | [7] -0.024 | [8] -0.024 | [9] 0.02 | [10] 0.017

MTRF1 (UniProt O75570)
inactive: [1] 0.259

MTHFD1L (UniProt Q6UB35)
inactive: [1] 0.023 | [2] -0.015 | [3] 0.128 | [4] -0.025 | [5] 0.082 | [6] -0.027 | [7] -0.044 | [8] 0.04 | [9] -0.011 | [10] 0.031

MYH14 isoform 2 (UniProt Q7Z406)
inactive: [1] 0.013 | [2] -0.021 | [3] 0.019 | [4] -0.012 | [5] -0.01 | [6] 0.023 | [7] 0.019 | [8] -0.027 | [9] -0.029 | [10] 0.032

MSI1 (UniProt O43347)
inactive: [1] -0.039 | [2] 0.204 | [3] -0.183 | [4] 0.058 | [5] -0.032 | [6] 0.008 | [7] -0.035 | [8] 0.091 | [9] 0.02 | [10] -0.123

MTCH2 (UniProt Q9Y6C9)
inactive: [1] 0.025 | [2] 0.098 | [3] 0.061 | [4] 0.01 | [5] 0.009 | [6] -0.027 | [7] -0.037 | [8] -0.037 | [9] -0.014 | [10] 0.002

MTMR6 (UniProt Q9Y217)
inactive: [1] -0.049 | [2] 0.049 | [3] 0.151 | [4] 0.048 | [5] 0.099 | [6] -0.045 | [7] 0.02 | [8] -0.008 | [9] -0.207 | [10] -0.011

MYH15 (UniProt Q9Y2K3)
inactive: [1] 0.235

MRPS28 (UniProt Q9Y2Q9)
inactive: [1] -0.064 | [2] 0.036 | [3] -0.046 | [4] 0.141 | [5] -0.041 | [6] -0.153 | [7] -0.08 | [8] 0.077 | [9] 0.048 | [10] -0.094

MYL6B (UniProt P14649)
inactive: [1] -0.002 | [2] 0.067 | [3] 0.009 | [4] 0.003 | [5] 0.025 | [6] -0.001 | [7] 0.025 | [8] -0.053 | [9] 0.009 | [10] 0.008

MTCH1 (UniProt Q9NZJ7)
inactive: [1] 0.012 | [2] 0.115 | [3] 0.042 | [4] -0.045 | [5] -0.025 | [6] -0.066 | [7] -0.006 | [8] -0.006 | [9] 0.063 | [10] 0.026

MT-CO2 (UniProt P00403)
inactive: [1] -0.008 | [2] -0.006 | [3] 0.18 | [4] -0.082 | [5] 0.161 | [6] 0.051 | [7] 0.045 | [8] -0.024 | [9] 0.083 | [10] 0.024

MYO1C (UniProt O00159)
inactive: [1] 0.152 | [2] -0.324 | [3] -0.082 | [4] 0.312 | [5] -0.066 | [6] -0.113 | [7] -0.092 | [8] 0.136 | [9] -0.088 | [10] -0.423

MRPS30 (UniProt Q9NP92)
inactive: [1] 0.021 | [2] 0.023 | [3] -0.155 | [4] 0.254 | [5] -0.087 | [6] 0.077 | [7] 0.001 | [8] 0.1 | [9] 0.085 | [10] -0.205

MRPS36 (UniProt P82909)
inactive: [1] 0.059 | [2] -0.052 | [3] -0.027 | [4] -0.095 | [5] -0.08 | [6] 0.028 | [7] -0.035 | [8] -0.121 | [9] -0.013 | [10] -0.012

MTM1 (UniProt Q13496)
inactive: [1] -0.003 | [2] 0.049 | [3] -0.016 | [4] -0.05 | [5] -0.016 | [6] 0.087 | [7] -0.021 | [8] 0.03 | [9] -0.003 | [10] 0.096

MTMR1 (UniProt Q13613)
inactive: [1] -0.092 | [2] -0.213 | [3] 0.11 | [4] 0.083 | [5] -0.061 | [6] -0.258 | [7] 0.041 | [8] 0.035 | [9] 0.125 | [10] -0.072

MTPN (UniProt P58546)
inactive: [1] 0.014 | [2] 0.202 | [3] -0.003 | [4] -0.147 | [5] 0.205 | [6] 0.211 | [7] 0.167 | [8] 0.081 | [9] -0.045 | [10] 0.304

MTHFR isoform 2 (UniProt P42898)
inactive: [1] 0.07 | [2] -0.03 | [3] 0.151 | [4] -0.013 | [5] 0.086 | [6] 0.037 | [7] -0.021 | [8] 0.007 | [9] 0.02 | [10] -0.017

MRPS18A isoform 2 (UniProt Q9NVS2)
inactive: [1] 0.044 | [2] 0.002 | [3] -0.124 | [4] 0.324 | [5] -0.129 | [6] 0.118 | [7] 0.033 | [8] 0.076 | [9] 0.12 | [10] -0.159

Random excerpt: 2 entries already listed
MTPN (UniProt P58546)
inactive: [1] 0.014 | [2] 0.202 | [3] -0.003 | [4] -0.147 | [5] 0.205 | [6] 0.211 | [7] 0.167 | [8] 0.081 | [9] -0.045 | [10] 0.304

MTMR1 (UniProt Q13613)
inactive: [1] -0.092 | [2] -0.213 | [3] 0.11 | [4] 0.083 | [5] -0.061 | [6] -0.258 | [7] 0.041 | [8] 0.035 | [9] 0.125 | [10] -0.072

Following part

MVD (UniProt P53602)
inactive: [1] 0.021 | [2] -0.041 | [3] 0.059 | [4] -0.042 | [5] -0.08 | [6] -0.022 | [7] -0.007 | [8] -0.026 | [9] 0.017 | [10] 0.011

MRPS11 (UniProt P82912)
inactive: [1] 0.091 | [2] 0.011 | [3] 0.047 | [4] 0.173 | [5] 0.031 | [6] -0.108 | [7] -0.07 | [8] 0.177 | [9] 0.045 | [10] -0.364

MRPL9 (UniProt Q9BYD2)
inactive: [1] 0.078 | [2] -0.057 | [3] -0.093 | [4] 0.223 | [5] -0.08 | [6] 0.103 | [7] 0.047 | [8] 0.087 | [9] 0.014 | [10] -0.133

MYL4 (UniProt P12829)
inactive: [1] -0.019 | [2] 0.061 | [3] 0.115 | [4] -0.087 | [5] 0.039 | [6] 0.077 | [7] 0.019 | [8] -0.054 | [9] 0.006 | [10] 0.025
